Results are given in words; binding and its absence hold for the method and conditions named. Some binding calls cover weakened binding; strength is not graded here. Sequences can lack the tags named with a protein.
T1: human Shrm2 SD2 domain (1427–1610), untagged (human) (UniProt Q13796)
T1 sequence: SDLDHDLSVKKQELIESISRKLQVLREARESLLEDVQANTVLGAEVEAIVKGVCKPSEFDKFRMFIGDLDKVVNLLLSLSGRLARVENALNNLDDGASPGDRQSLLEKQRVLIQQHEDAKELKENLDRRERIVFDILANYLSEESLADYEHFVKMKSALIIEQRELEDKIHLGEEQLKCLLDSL

By UniProt entry, the sequences of proteins in these tests, tags left out. Where a name states a change or a piece, a line headed by the entry shows the natural chain unless it says otherwise. Chains listed by the source or under a name are the forms on record and can include a tag or linker. Residues count along the entry.
His6-tagged human Rock1 707–815 (Q13464, residues 707-815): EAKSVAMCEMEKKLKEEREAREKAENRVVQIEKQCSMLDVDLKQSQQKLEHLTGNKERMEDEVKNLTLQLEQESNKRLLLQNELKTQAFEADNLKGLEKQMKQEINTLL
human Rock1 707–946, 900ESEQLAR906 to alanine (Q13464, form named): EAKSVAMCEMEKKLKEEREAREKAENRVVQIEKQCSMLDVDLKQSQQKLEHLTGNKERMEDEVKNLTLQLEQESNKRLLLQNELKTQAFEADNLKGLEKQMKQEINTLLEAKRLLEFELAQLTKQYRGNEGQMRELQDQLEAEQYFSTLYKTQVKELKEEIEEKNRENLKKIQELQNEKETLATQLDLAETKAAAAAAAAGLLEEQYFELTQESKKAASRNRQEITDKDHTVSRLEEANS


How the values were obtained:
[1] = target: T1, human Shrm2 SD2 domain (1427–1610), untagged (human); assay: native gel or EMSA; 10 µM Rock1 707–946 (wild type or mutant) mixed with 10 µM human Shrm2 SD2, 20 min room temperature; 12% native PAGE at 4°C, Coomassie; both purified
[2] = target: His6-tagged human Rock1 707–815 (human) (UniProt Q13464); assay: pull-down; 25 µg purified His-tagged Rock1 fragment on nickel beads, 2x molar excess of untagged Shrm2 SD2, 10 min room temperature; 2% glycerol, 100 mM NaCl, 7 mM imidazole, 1 mM β-mercaptoethanol, 20 mM Tris pH 8.0; SDS-PAGE, Coomassie; both purified

binding [1] | binding [2] | Molecule
binds |  | human Rock1 707–946, 900ESEQLAR906 to alanine (from UniProt Q13464 707-946) (domain or fragment)
 | no binding | human Shrm2 SD2 domain (1427–1610), untagged (domain or fragment, UniProt Q13796 1427-1610, looked up, Shroom2 (Shrm2), human, Shrm Domain 2 (SD2), residues 1427-1610; Cloned into pET151/D-TOPO (His6 removable with TEV); called untagged in the pull-down; also called Shrm SD2; human Shroom2 SD2; source: E. coli BL21(DE3) Codon+(RILP), purified; not shown: His6, N-terminal, cleaved) SDLDHDLSVKKQELIESISRKLQVLREARESLLEDVQANTVLGAEVEAIVKGVCKPSEFDKFRMFIGDLDKVVNLLLSLSGRLARVENALNNLDDGASPGDRQSLLEKQRVLIQQHEDAKELKENLDRRERIVFDILANYLSEESLADYEHFVKMKSALIIEQRELEDKIHLGEEQLKCLLDSL

Reference: paper PMC3857177 (PLoS ONE, 2013)
